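Human melanoma cells were exposed to two drugs together for 72 h in 1,536-well plates and read by automated microscopy after fixing and staining. Values are the share of nuclei positive for cleaved PARP as a percentage of the same share in the DMSO control: 100 is the control level, higher means more apoptosis. Every drug was used at one fixed concentration, the higher of two screened. The file gives one value for each pair and line, without errors, so small differences may be noise. The marker varies much from line to line, for technical or biological reasons.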
Only some of the drugs and lines screened are listed, without regard to their results.

Drugs:
vorinostat (400 nM): O=C(CCCCCCC(=O)Nc1ccccc1)NO
decitabine (500 nM): Nc1ncn([C@H]2C[C@H](O)[C@@H](CO)O2)c(=O)n1
L-779450 (1000 nM): Oc1cc(-c2nc(-c3ccccc3)[nH]c2-c2ccncc2)ccc1Cl
SU6656 (2000 nM): CN(C)S(=O)(=O)c1ccc2c(c1)/C(=C/c1cc3c([nH]1)CCCC3)C(=O)N2
bortezomib (5 nM): CC(C)C[C@H](NC(=O)[C@H](Cc1ccccc1)NC(=O)c1cnccn1)B(O)O
VX-702 (2000 nM): NC(=O)c1ccc(N(C(N)=O)c2c(F)cccc2F)nc1-c1ccc(F)cc1F
darinaparsin (2000 nM): C[As](C)SC[C@H](NC(=O)CC[C@H](N)C(=O)O)C(=O)NCC(=O)O

For darinaparsin + SU6656 the values were COLO 829: 143; WM115: 232; MeWo: 127; WM3619: 112.
For L-779450 + bortezomib the values were COLO 829: 3720; WM115: 211; MeWo: 3830; WM3619: 1460.
For VX-702 + vorinostat the values were COLO 829: 68.0; WM115: 60.2; MeWo: 136; WM3619: 124.
For decitabine + VX-702 the values were COLO 829: 218; WM115: 148; MeWo: 283; WM3619: 122.
For bortezomib + SU6656 the values were COLO 829: 2360; WM115: 2680; MeWo: 3210; WM3619: 1130.
For vorinostat + L-779450 the values were COLO 829: 253; WM115: 287; MeWo: 51.4; WM3619: 170.
For bortezomib + decitabine the values were COLO 829: 3210; WM115: 2130; MeWo: 1800; WM3619: 2690.
For darinaparsin + vorinostat the values were COLO 829: 152; WM115: 78.1; MeWo: 178; WM3619: 117.
For vorinostat + bortezomib the values were COLO 829: 5530; WM115: 1080; MeWo: 2820; WM3619: 2630.
For decitabine + L-779450 the values were COLO 829: 166; WM115: 237; MeWo: 107; WM3619: 137.
For vorinostat + SU6656 the values were COLO 829: 118; WM115: 313; MeWo: 77.2; WM3619: 139.
For VX-702 + bortezomib the values were COLO 829: 5080; WM115: 3020; MeWo: 2120; WM3619: 2600.
For darinaparsin + bortezomib the values were COLO 829: 3060; WM115: 3220; MeWo: 1390; WM3619: 1410.
For VX-702 + darinaparsin the values were COLO 829: 138; WM115: 150; MeWo: 126; WM3619: 107.
For darinaparsin + L-779450 the values were COLO 829: 337; WM115: 116; MeWo: 79.9; WM3619: 148.
For SU6656 + VX-702 the values were COLO 829: 140; WM115: 1170; MeWo: 148; WM3619: 98.3.
For decitabine + SU6656 the values were COLO 829: 132; WM115: 177; MeWo: 410; WM3619: 114.
For decitabine + vorinostat the values were COLO 829: 170; WM115: 162; MeWo: 142; WM3619: 128.
For L-779450 + VX-702 the values were COLO 829: 94.9; WM115: 148; MeWo: 95.9; WM3619: 137.
For decitabine + darinaparsin the values were COLO 829: 133; WM115: 92.0; MeWo: 136; WM3619: 159.
For L-779450 + SU6656 the values were COLO 829: 336; WM115: 192; MeWo: 169; WM3619: 155.

Values as published with doi:10.1371/journal.pone.0140310, rounded.